Our source for the binding values is article doi:10.1101/679803.

By UniProt entry, the sequences of proteins in these tests, tags left out. Residues count along the entry.
UniProt C0LGT6, residues 25-1031: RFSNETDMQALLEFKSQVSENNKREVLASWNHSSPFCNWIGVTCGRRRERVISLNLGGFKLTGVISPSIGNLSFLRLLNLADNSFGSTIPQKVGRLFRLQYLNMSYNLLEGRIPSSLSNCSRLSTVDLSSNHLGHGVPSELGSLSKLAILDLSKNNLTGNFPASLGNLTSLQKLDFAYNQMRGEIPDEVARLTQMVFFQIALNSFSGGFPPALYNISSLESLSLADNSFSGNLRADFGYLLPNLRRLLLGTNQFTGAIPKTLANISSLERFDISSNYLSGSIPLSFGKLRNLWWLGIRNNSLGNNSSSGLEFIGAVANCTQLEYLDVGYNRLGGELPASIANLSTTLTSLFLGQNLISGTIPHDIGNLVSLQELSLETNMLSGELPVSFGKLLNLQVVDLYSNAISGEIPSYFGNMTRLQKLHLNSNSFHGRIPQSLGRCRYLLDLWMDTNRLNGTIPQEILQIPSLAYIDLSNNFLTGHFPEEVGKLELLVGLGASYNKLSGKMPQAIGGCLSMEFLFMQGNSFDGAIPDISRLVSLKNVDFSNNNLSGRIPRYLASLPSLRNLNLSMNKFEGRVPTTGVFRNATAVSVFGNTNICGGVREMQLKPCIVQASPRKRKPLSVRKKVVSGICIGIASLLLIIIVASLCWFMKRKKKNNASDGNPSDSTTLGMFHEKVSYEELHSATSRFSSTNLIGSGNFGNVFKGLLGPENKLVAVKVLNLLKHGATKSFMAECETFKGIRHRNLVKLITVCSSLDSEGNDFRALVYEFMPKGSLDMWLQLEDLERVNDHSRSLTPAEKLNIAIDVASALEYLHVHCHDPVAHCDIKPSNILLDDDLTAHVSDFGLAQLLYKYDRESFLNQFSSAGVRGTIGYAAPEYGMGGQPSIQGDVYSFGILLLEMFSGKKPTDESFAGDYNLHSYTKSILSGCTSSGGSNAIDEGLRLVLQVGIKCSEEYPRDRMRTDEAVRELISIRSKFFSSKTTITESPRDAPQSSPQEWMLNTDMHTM

Results are given in words; binding and its absence hold for the method and conditions named. Sequences can lack the tags named with a protein.

For the assay, the target named is EF-Tu receptor (EFR) (UniProt C0LGT6). Description: retained luminescence of an acridinium-labelled peptide on plant tissue.

B1: acridinium-Vu-In (N-terminal acridinium-tagged Vu-In conjugate) (peptide)
peptide: ICDINGVCVDA
modifications: acridinium on the N-terminus
With B1, the binding result was “no binding”.
